No constants are given. Whether binding was seen depends on the method and setting. Binding seen in cells or lysates may run through a third protein. Some binding calls cover weakened binding; strength is not graded here. For some of these results: Where a sequence is shown, tags or fusion partners need not be part of it.

Chains of the proteins cited; added tags and fusions are not shown.
UniProt P49770: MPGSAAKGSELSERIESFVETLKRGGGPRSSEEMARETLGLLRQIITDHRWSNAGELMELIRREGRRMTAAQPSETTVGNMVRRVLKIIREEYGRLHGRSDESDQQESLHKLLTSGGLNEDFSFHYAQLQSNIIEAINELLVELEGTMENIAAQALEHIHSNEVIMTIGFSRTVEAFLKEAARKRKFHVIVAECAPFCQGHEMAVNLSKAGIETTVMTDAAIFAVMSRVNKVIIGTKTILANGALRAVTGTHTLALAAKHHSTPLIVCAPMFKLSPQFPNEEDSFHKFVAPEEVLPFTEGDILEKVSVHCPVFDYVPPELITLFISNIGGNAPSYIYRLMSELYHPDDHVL
UniProt Q9NR50: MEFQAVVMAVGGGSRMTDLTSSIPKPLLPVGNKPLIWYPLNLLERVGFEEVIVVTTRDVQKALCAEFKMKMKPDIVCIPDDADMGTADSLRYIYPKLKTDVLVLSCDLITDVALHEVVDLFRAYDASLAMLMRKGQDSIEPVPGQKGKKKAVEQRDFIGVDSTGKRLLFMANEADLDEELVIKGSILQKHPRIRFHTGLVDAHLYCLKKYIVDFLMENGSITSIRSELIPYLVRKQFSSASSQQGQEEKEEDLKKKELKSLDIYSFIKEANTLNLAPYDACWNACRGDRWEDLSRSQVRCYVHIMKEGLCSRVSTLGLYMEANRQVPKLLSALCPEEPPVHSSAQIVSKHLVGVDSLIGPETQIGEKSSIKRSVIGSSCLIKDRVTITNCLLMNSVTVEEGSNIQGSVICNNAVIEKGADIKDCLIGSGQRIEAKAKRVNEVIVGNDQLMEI

For five substances, binding results are on record in paper doi:10.1101/2025.11.10.686860.

One assay deals with FLAG-KRAS 4B G12C (UniProt P01116). Nature of the assay: co-IP.
Another assay has as its target FLAG-KRAS 4B S17N (UniProt P01116). Nature of the assay: co-IP.
The next assay has as its target FLAG-KRAS 4B G12A (UniProt P01116). Nature of the assay: co-IP.
The next assay deals with FLAG-KRAS 4B G12D (UniProt P01116). In words: co-IP.
A further assay has as its target FLAG-KRAS 4B Q61R (UniProt P01116). In words: co-IP.
Assay [1] deals with KRAS G12C (endogenous, H358 cells) (human (endogenous in H358)) (UniProt P01116). Nature of the assay: pull-down.
The target of the next assay is T1, MYC-eIF2Bα (human) (UniProt Q14232).
T1 sequence: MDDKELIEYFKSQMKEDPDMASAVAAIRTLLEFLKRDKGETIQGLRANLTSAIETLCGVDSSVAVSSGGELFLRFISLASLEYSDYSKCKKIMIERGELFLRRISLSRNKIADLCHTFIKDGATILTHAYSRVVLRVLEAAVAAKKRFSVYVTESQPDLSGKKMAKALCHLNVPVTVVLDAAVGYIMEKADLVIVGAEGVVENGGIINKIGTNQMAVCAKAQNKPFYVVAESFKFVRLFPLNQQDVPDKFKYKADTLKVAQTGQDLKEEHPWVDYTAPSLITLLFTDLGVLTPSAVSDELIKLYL
In words: co-IP.

In the case of MYC-eIF2Bβ (from UniProt P49770 1-351), the binding result is “binds” with FLAG-KRAS 4B G12C; “no binding” with FLAG-KRAS 4B S17N; “binds” with FLAG-KRAS 4B G12A; “binds” in the assay with FLAG-KRAS 4B G12D; “binds” in the assay with FLAG-KRAS 4B Q61R.

In the case of MYC-eIF2Bγ (from UniProt Q9NR50 1-452), the binding entry is on record as “binds” with FLAG-KRAS 4B G12C; “no binding” in the assay with FLAG-KRAS 4B S17N; “binds” with FLAG-KRAS 4B G12A; “binds” with FLAG-KRAS 4B G12D; “binds” in the assay with FLAG-KRAS 4B Q61R.

For “eIF2Bγ (endogenous) (from UniProt Q9NR50 1-452)”, the binding entry in assay [1] was “binds”.

For the substance HA-SOS1 (from UniProt Q07889 1-1333), the binding result with MYC-eIF2Bα (human) is listed as “binds”.

As to “eIF2Bβ (endogenous) (from UniProt P49770 1-351)”, in assay [1], the binding result is on record as “binds”.
